As a reminder, the Kd is the equilibrium constant for the complex coming apart. High values mean lower affinity, low ones higher affinity.

Here are results for two molecules from patent US20240024503A1 (Stanford University, published 2024).

In this assay the target is T1, human/mouse B7-H3 (form used for the Kd values not stated) (human, UniProt Q5ZPR3 29-466, limits assumed).
T1 construct: also called human B7-H3
T1 sequence: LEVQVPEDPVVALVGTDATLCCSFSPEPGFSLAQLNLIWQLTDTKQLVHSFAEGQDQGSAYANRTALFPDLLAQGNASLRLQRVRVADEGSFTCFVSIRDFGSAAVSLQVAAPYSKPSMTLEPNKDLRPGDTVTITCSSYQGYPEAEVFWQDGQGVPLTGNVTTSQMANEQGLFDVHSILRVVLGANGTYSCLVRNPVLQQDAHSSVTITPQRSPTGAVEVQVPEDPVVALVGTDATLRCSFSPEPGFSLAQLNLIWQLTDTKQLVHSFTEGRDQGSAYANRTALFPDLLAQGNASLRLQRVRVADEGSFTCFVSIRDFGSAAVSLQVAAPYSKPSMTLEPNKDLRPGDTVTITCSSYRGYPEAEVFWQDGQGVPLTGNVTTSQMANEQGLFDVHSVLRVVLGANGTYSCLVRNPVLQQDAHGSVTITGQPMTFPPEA
As to the kind of experiment: method not stated; binding affinities to human/mouse B7-H3.

Residue numbers refer to the chain shown, from its start.

B1: ABYAC12 affibody with N-terminal His-Tag, enterokinase cleavage site and C-terminal pentaglycine-cysteine (designed binder)
chain: HHHHHHDDDDKAEAKYAKEKIAALSEIIWLPNLTHGQIMAFIAALNDDPSQSSELLSEAKKLNDSQAPKGGGGGC
modifications: biotinylated with NHS-PEG4-Biotin (amine-reactive, 1:1.6 molar ratio ABY:biotin) for the flow cytometry assays
notes: MALDI-TOF 8.266 kDa; Expressed in E. coli from pET-22b; also called ABYACI2; AC12cys
As to B1, the Kd was determined as 0.9 nM.

B2: ABYAC2 affibody with N-terminal His-Tag, enterokinase cleavage site and C-terminal pentaglycine-cysteine (designed binder)
chain: B1 chain with A22F, L24V, S25G, I28Y
modifications: biotinylated with NHS-PEG4-Biotin (amine-reactive, 1:1.6 molar ratio ABY:biotin) for the flow cytometry assays
notes: Expressed in E. coli from pET-22b (NheI/BamHI); also called biotinylated-AC2; parental AC2
B2: the Kd is 310 nM.
